In US11008549B2, “In vitro model for a tumor microenvironment” (HemoShear, LLC, priority 2013, dated 2021):
At least one structure is not confirmed: it was looked up by name or label, or the drawing left a doubt.

System: rat hepatocytes
Experiment: In vitro fatty liver model, Nile red staining of lipid droplets
Format: cell-based
Conditions: 1.5 μM, high insulin/glucose fatty liver media, controlled hemodynamics, day 7

CCc1ccc(CCOc2ccc(CC3SC(=O)NC3=O)cc2)nc1 (stereo not shown) [pioglitazone]
lipid droplet formation (Nile red staining): decreases lipid droplet formation
